No constants are given. Whether binding was seen depends on the method and setting. Binding seen in cells or lysates may run through a third protein. These calls come from enrichment with a bait or labelling near it, and not all partners need be listed. Tags and fused reporters may be left off the sequences shown.
Molecular target: T1, MBP-tagged enzymatically inactive CCP2 mutant (H425S and E428Q) (mouse) (UniProt Q8CDK2)
T1 sequence: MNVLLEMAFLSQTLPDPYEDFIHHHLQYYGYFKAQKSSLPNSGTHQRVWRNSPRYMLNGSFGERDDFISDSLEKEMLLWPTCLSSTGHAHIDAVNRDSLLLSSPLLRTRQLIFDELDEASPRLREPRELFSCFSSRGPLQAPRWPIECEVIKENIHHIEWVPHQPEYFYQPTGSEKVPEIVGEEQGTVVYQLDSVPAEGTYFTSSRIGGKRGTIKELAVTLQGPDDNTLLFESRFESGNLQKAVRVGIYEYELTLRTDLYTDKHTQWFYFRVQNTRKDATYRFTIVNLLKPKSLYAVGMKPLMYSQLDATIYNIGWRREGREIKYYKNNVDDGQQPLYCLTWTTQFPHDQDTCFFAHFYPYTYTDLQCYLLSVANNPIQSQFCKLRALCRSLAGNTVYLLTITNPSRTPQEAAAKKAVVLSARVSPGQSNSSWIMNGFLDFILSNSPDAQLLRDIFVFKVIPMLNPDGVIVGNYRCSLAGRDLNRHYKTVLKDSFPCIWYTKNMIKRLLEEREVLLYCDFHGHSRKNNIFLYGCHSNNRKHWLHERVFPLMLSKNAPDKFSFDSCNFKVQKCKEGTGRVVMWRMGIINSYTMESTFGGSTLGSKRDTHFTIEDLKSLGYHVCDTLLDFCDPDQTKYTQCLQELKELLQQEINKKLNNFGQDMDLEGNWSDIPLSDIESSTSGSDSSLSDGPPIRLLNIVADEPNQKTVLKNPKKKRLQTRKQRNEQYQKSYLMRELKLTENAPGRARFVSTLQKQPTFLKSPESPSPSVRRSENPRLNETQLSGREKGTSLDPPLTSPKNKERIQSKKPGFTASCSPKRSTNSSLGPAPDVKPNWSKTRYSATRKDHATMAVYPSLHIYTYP
Assay: affinity purification with mass spectrometry; recombinant CCP2-wt and CCP2-mut immobilised on Affi-gel10 resin, BM lysates passed over (Ccp2-/- BM lysates by the legend); eluate on SDS-PAGE, silver staining; ~60 kD band cut, LC-LTQ MS/MS; only the target purified

B1: native IL-7Rα from mouse bone marrow lysates (receptor, UniProt P16872 21-459)
chain: ESGNAQDGDLEDADADDHSFWCHSQLEVDGSQHLLTCAFNDSDINTANLEFQICGALLRVKCLTLNKLQDIYFIKTSEFLLIGSSNICVKLGQKNLTCKNMAINTIVKAEAPSDLKVVYRKEANDFLVTFNAPHLKKKYLKKVKHDVAYRPARGESNWTHVSLFHTRTTIPQRKLRPKAMYEIKVRSIPHNDYFKGFWSEWSPSSTFETPEPKNQGGWDPVLPSVTILSLFSVFLLVILAHVLWKKRIKPVVWPSLPDHKKTLEQLCKKPKTSLNVSFNPESFLDCQIHEVKGVEARDEVESFLPNDLPAQPEELETQGHRAAVHSANRSPETSVSPPETVRRESPLRCLARNLSTCNAPPLLSSRSPDYRDGDRNRPPVYQDLLPNSGNTNVPVPVPQPLPFQSGILIPVSQRQPISTSSVLNQEEAYVTMSSFYQNK
binding: binds

Reference: publication PMC5550436
